Results as given in PubChem BioAssay AID493014 (National Center for Advancing Translational Sciences (NCATS), 2011).
The other results are listed elsewhere or left out. Shown are side measurements of this screen, not its main read-out; they come without a call. Most of these compounds were active or inconclusive in the main read-out, so they are no random draw. Words in brackets tell the shape of the fitted curve; partial curves, single points and poor fits give uncertain potencies.

Test: qHTS Assay to Find Inhibitors of Chronic Active B-Cell Receptor Signaling
Details: ABC-DLBCL IkBa-CBG/CBR reporter, luminescence ratio (green luciferase fused to IkBa over red control in TMD8 lymphoma cells), 4 h
In short: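 Compounds up to 46 uM were incubated four hours with TMD8 cells whose green CBG68 luciferase is fused to IkappaBalpha; red CBR luminescence normalised the signal, and concentration-effect curves were fitted to fusion, red and ratio data.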

[1] = measured here: CBR red luminescence, cell number
[2] = measured here: IkBa-CBG green luminescence

| SMILES | AC50 [1] | AC50 [2] |
| --- | --- | --- |
| CC(C)C[C@H]1CN=C(Nc2ccccc2)N1CCCC1CCCCC1 | 17.8 µM [falling, single point] | – |
| C/C(=N\Nc1cc(C)nc(-c2ccccc2O)n1)c1ccccc1 | 11.2 µM [falling, single point] | 0.447 µM [rising, full curve, poor fit] |
| COc1cccc(OCCCn2ccnc2)c1 | 2.82 µM [falling, partial curve, poor fit] | – |
| COc1cc(N/C(N)=N/c2nc(C)cc(C)n2)cc(OC)c1 | 35.5 µM [falling, single point] | – |
| O=C(O)c1ccccc1C(=O)Nc1cc(-c2ccccc2)[nH]n1 | 35.5 µM [falling, single point] | – |
| O=C(Nc1cccc(NC(=O)c2ccc(Br)o2)c1)c1ccccc1 | 1.58 µM [falling, full curve] | – |
| CC(C)N1C(=O)S/C(=C\c2ccc(-c3ccc(Cl)c(C(=O)O)c3)o2)C1=O | 12.6 µM [falling, partial curve, poor fit] | – |
| CC1=C(CC(=O)O)c2cc(F)ccc2/C1=C\c1ccc(S(C)=O)cc1 (centres undefined) | 3.98 µM [rising, single point] | – |
| CCN(CC)CCCNc1nc2cc(OC)c(OC)cc2c2nc(-c3cccnc3)nn12 | 1.16 µM [falling, full curve] | 29.1 µM [falling, single point] |
| CN(C)S(=O)(=O)N1CCN(CC(O)COc2ccc(-c3ccccc3)cc2)CC1 (centres undefined) | 31.6 µM [rising, partial curve, poor fit] | – |
| Cc1c(N=C2NN=C(c3ccc(Cl)cc3)CS2)c(=O)n(-c2ccccc2)n1C | 15.8 µM [falling, single point] | – |
| CCCC(=O)Nc1ccc2c(c1)nc(CN1CCN(C(=O)OCC)CC1)n2CC | 3.98 µM [rising, partial curve, poor fit] | 11.2 µM [falling, partial curve] |
| O=C(Nc1nnc(CSCc2ccccc2F)s1)c1cccc([N+](=O)[O-])c1 | 1.46 µM [rising, partial curve, poor fit] | – |
| CCOC(=O)CCC(=O)Nc1ccccc1C(N)=O | 0.731 µM [falling, partial curve, poor fit] | – |
| Cc1ccc(S(=O)(=O)Cc2cc(F)c([N+](=O)[O-])cc2[N+](=O)[O-])cc1 | 3.98 µM [falling, full curve] | – |
| Cc1ccc(CNC(=O)COC(=O)c2ccc(S(=O)(=O)NCc3ccco3)cc2)cc1 | 2.06 µM [rising, partial curve] | – |
| CNc1ccccc1C(=O)OC(C)C(=O)Nc1ccc(Cl)cn1 (centres undefined) | 35.5 µM [falling, single point] | – |
| Cc1ccc(-c2nnc(SCC(=O)N/N=C/c3ccc(C)s3)n2-c2ccc(C)cc2)cc1 | 8.2 µM [rising, partial curve, poor fit] | – |
| O=C1N(c2ccccc2)C2CS(=O)(=O)CC2N1c1ccc(Br)cc1 (centres undefined) | 14.6 µM [rising, partial curve, poor fit] | – |
| COc1ccc2nc(Nc3nc4cc5c(cc4s3)OCO5)sc2c1 | 4.11 µM [rising, partial curve] | – |

| SMILES | AC50 [1] | AC50 [2] |
| --- | --- | --- |
| CN(C)CCCNC(=O)c1cc(S(=O)(=O)N2CCOCC2)ccc1F | 0.00411 µM [rising, full curve, poor fit] | – |
| Nc1ccc(C(=O)Nc2ccc3nc(-c4ccncc4)[nH]c3c2)cc1 | 8.91 µM [falling, partial curve] | – |
| COc1cc2[nH]c(=S)nc(NCc3cccs3)c2cc1OC | 7.94 µM [falling, partial curve, poor fit] | – |
| CC(=O)Nc1cccc(NS(=O)(=O)c2cccc3nsnc23)c1 | 0.92 µM [rising, partial curve, poor fit] | – |
| CCN(CC)CCNC(=O)CSc1c2c(nc3cc(Cl)ccc13)CCCC2 | 12.6 µM [falling, partial curve, poor fit] | – |
| CC(C)(C)c1nnc(NC(=S)Nc2ccccc2)s1 | 2.24 µM [falling, full curve] | – |
| CCOC(=O)c1cnc2ccc(C)cc2c1N(C)Cc1ccccc1 | 35.5 µM [falling, single point] | – |
| COc1ccc(NC(=S)NCc2ccco2)cc1 | 6.31 µM [falling, single point] | – |
| Cn1c(-c2ccccc2)cnc1NCc1ccc(-c2ccccc2)cc1 | 35.5 µM [rising, single point] | 35.5 µM [falling, single point] |
| COC(=O)CNC(c1ccccc1)c1cc(Br)ccc1NC(=O)CNC(=O)OCc1ccccc1 (centres undefined) | 13 µM [falling, single point] | – |
| O=C(Nc1cccc(Cl)c1)c1cncn1-c1ccc(F)cc1 | 3.55 µM [falling, partial curve, poor fit] | – |
| CCN(C(=O)COC(=O)Cc1ccc(F)cc1)c1c(N)n(Cc2ccccc2)c(=O)[nH]c1=O | 2.31 µM [rising, partial curve, poor fit] | – |
| O=C(N/N=C/c1coc2ccccc2c1=O)c1ccccc1Br | 5.17 µM [falling, partial curve, poor fit] | – |
| CCOC(=O)C/C(=N\Nc1ncnc2ccccc12)c1ccccc1 | 12.6 µM [falling, partial curve] | – |
| CCn1nc(C)c(/C=N/NC(=O)c2ccoc2C)c1C | 28.2 µM [falling, single point] | – |
| CC1C(=O)N2CCCc3cc(NC(=O)C(=O)NCCc4ccc(F)cc4)cc1c32 (centres undefined) | 20.6 µM [rising, partial curve] | 20.6 µM [falling, single point] |
| O=C1C(Nc2ccc(O)cc2)=C/C(=N/S(=O)(=O)c2cccs2)c2ccccc21 | 7.08 µM [falling, partial curve, poor fit] | – |
| O=C(c1c[nH]c(C(=O)C(Cl)(Cl)Cl)c1)c1c(F)cccc1F | 14.1 µM [falling, single point] | – |
| Cc1[nH]n(-c2cccc(Cl)c2)c(=O)c1C=NCc1ccco1 | 35.5 µM [falling, single point] | – |

Part of the list above, set out differently.
COc1cc2[nH]c(=S)nc(NCc3cccs3)c2cc1OC
  AC50 [1]: 7.94 µM [falling, partial curve, poor fit]
COC(=O)CNC(c1ccccc1)c1cc(Br)ccc1NC(=O)CNC(=O)OCc1ccccc1 (centres undefined)
  AC50 [1]: 13 µM [falling, single point]
Cc1[nH]n(-c2cccc(Cl)c2)c(=O)c1C=NCc1ccco1
  AC50 [1]: 35.5 µM [falling, single point]
